Here are results for 64 compounds from PubChem BioAssay AID493014 (National Center for Advancing Translational Sciences (NCATS), 2011).

The other results are listed elsewhere or left out. Shown are side measurements of this screen, not its main read-out; they come without a call. Compounds called inactive in the main read-out are mostly missing here. The note in brackets gives the kind of curve behind each potency; many fits are weak.

The experiment is described as follows: qHTS Assay to Find Inhibitors of Chronic Active B-Cell Receptor Signaling. The following applies: ABC-DLBCL IkBa-CBG/CBR reporter, luminescence ratio (green luciferase fused to IkBa over red control in TMD8 lymphoma cells), 4 h. In a few lines: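 Compounds up to 46 uM were incubated four hours with TMD8 cells whose green CBG68 luciferase is fused to IkappaBalpha; red CBR luminescence normalised the signal, and concentration-effect curves were fitted to fusion, red and ratio data.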
For orientation: qHTS replaces the single test concentration by a dilution series.

[1] abbreviates: measured here: CBR red luminescence, cell number.
[2] abbreviates: measured here: IkBa-CBG green luminescence.

For `Cc1cccc(NC(=O)C2CCCN2S(=O)(=O)c2cccc3cccnc23)c1` (stereo unspecified), the AC50 under setting [1] was 1.46 µM [rising, partial curve, poor fit].
Same read-out and setting: the figure for `Cc1ccc(OCC(=O)Nc2cc(S(=O)(=O)N3CCCCC3)ccc2N2CCN(C)CC2)c(C)c1` is 1.84 µM [falling, partial curve, poor fit].
Turning to `COC(=O)c1[nH]c(C)c(/C(O)=C2\C(=O)C(=O)N(CCN3CCOCC3)C2c2ccccc2OC)c1C` (stereo unspecified), the AC50 under setting [1] was 11.2 µM [rising, single point].
As for `S=C(NCCC1=CCCCC1)Nc1ccc(Cl)cc1`, the concentration at half-maximal activity (AC50) under setting [1] was 7.31 µM [rising, partial curve].
Consider `Cc1ccc(NC(=S)NNC(C)(C)C)cc1`, for which the AC50 was 7.08 µM [falling, full curve] under setting [1] and 5.62 µM [falling, full curve] under setting [2].
On to `CCCC#Cc1ccc2c(c1)COc1c3ccccc3nn1-2`, for which the AC50 under setting [1] was 0.461 µM [rising, full curve, poor fit].
Consider `CCc1ccc(-c2cc(C)no2)cc1S(=O)(=O)NCc1ccccc1OC`, for which the AC50 under setting [1] was 35.5 µM [falling, single point].
As to `Cc1ccc(C)c(NC(=S)c2ccccn2)c1`, the AC50 runs as follows: under setting [1], 7.94 µM [rising, partial curve, poor fit]; under setting [2], 5.62 µM [falling, single point].
For the compound `O=[N+]([O-])c1cccnc1S(=O)(=O)c1ccccc1`, the AC50 under setting [1] is 17.8 µM [falling, partial curve, poor fit].
For `Cc1nc(NC2=NCN(Cc3ccco3)CN2)nc2ccccc12`, the AC50 under setting [1] was 3.55 µM [falling, partial curve, poor fit].
Still for that read-out and setting: the figure for `Cc1cc(C)nc(SCc2csc(N)n2)n1` is 7.08 µM [falling, partial curve, poor fit].
Same read-out and setting: as for `Cc1ccc(CCNC(=O)C2CCC(=O)N2Cc2ccc(F)cc2)cc1` (stereo unspecified), the figure is 5.62 µM [rising, single point]; as for `Cc1ccc2cc(S(=O)(=O)NCCCN3CCOCC3)ccc2c1`, 35.5 µM [rising, single point]; as for `Cc1cccc2sc(N(CCCN(C)C)C(=O)CN3C(=O)c4ccccc4C3=O)nc12`, 35.5 µM [falling, single point].
For the compound `CNc1oc(-c2ccc(F)cc2)nc1S(=O)(=O)c1ccccc1`, under setting [1], the concentration at half-maximal activity (AC50) is 1.58 µM [falling, full curve, poor fit].
With `Cc1cc(NC(=O)C2CCN(C(=O)c3ccco3)CC2)ccc1Br`, the AC50 under setting [1] was 1.3 µM [rising, full curve].
Take `O=S(=O)(Nc1ncccc1O)c1ccc(Cl)cc1`: the AC50 under setting [1] is 3.26 µM [rising, partial curve, poor fit].
For the compound `COc1ccccc1N=c1oc2c(OC)cccc2cc1C(=O)NCc1ccco1`, the concentration at half-maximal activity (AC50) under setting [1] is 3.55 µM [falling, full curve].
As for `CCOc1ccccc1C(=S)NC1CCCCC1`, under setting [1], the AC50 was 6.31 µM [rising, partial curve].
The same measure, in the same setting: as for `Cc1cc(CSc2ccccc2)ccc1NC(=O)c1cccc([N+](=O)[O-])c1`, the figure is 3.98 µM [rising, single point]; as for `O=C(N/N=C/c1sc2ccccc2c1O)c1cccc2ccccc12`, 23.1 µM [falling, single point].
With `COc1ccc(OC)c(C(O)c2coc3ccc(O)c(CN4CCOCC4)c23)c1` (stereo unspecified), under setting [1], the AC50 is 17.8 µM [falling, single point].
Regarding `O=C(O)C/C=C(\NC(=O)OCc1ccccc1)C(=O)OCc1ccccc1`, under setting [1], the AC50 was 3.55 µM [rising, single point].
On to `COc1ccccc1/C=N/NC(=O)c1nnn(-c2nonc2N)c1CSC1=NCCS1`, for which the AC50 under setting [1] is 7.31 µM [falling, partial curve].
As for `Cc1nc(C)c(C(=O)O)s1`, under setting [1], the AC50 was 35.5 µM [falling, single point].
Consider `COc1ccccc1C(=O)COC(=O)COc1ccc(C#N)cc1`, for which, under setting [1], the AC50 was 1.64 µM [rising, partial curve, poor fit].
On the same count and under the same terms, as for `O=C1CN2C(=Nc3ccc(Cl)cc3C2c2ccccc2)CN1` (stereo unspecified), the figure is 29.1 µM [falling, single point]; as for `Cc1ccc(C)c(NC(=O)C(OC(=O)c2cc[n+]([O-])cc2)c2ccccc2)c1` (stereo unspecified), 6.51 µM [falling, single point]; as for `COC(=O)CSC(=S)N1C(C)CCCC1C` (stereo unspecified), 10 µM [rising, partial curve, poor fit].
Same read-out and setting: the figure for `COc1cc(/C=N/Nc2ccc(Cl)c(C(=O)O)c2)ccc1OC(=O)c1ccccc1F` is 7.94 µM [falling, partial curve]; for `CCOc1ccc(/C=N/NC(=O)c2[nH]ncc2Br)c(O)c1` it is 11.2 µM [falling, partial curve]; for `COc1ccccc1CNc1nc2nc(C)cc(=O)n2[nH]1` it is 11.6 µM [falling, partial curve, poor fit].
Consider `Cc1ccc(CNC(=O)COc2ccc(S(=O)(=O)NC(C)C)cc2)cc1`, for which the half-maximal activity concentration (AC50) under setting [1] was 29.1 µM [rising, single point].
The same measure, in the same setting: as for `c1ccc(-n2ncc3c(N4CCCCC4)ncnc32)cc1`, the figure is 15.8 µM [falling, single point]; as for `CCc1ccc2c(COC(=O)c3n[nH]c4ccccc34)cc(=O)oc2c1`, 20 µM [falling, single point]; as for `COc1cccc(-c2nn(C)c3sc(C(=O)Nc4ccc5c(c4)OCCO5)cc23)c1`, 1.84 µM [falling, full curve, poor fit].
In the case of `COC(=O)c1cc(NC(=O)Cc2ccc(OC)cc2)cc(C(=O)OC)c1`, under setting [1], the AC50 is 16.4 µM [rising, single point].
The same measure, in the same setting: as for `O=C1N(c2ccccc2)c2ccccc2C1(Cc1ccncc1)Cc1ccncc1`, the figure is 15.8 µM [falling, single point].
As for `COCCn1ccc2c(OCC(=O)Nc3ccccc3F)cccc2c1=O`, the AC50 under setting [1] was 1.41 µM [falling, full curve].
`CCOc1ccccc1NC(=O)CCNS(=O)(=O)c1ccc(NC(C)=O)cc1`: under setting [1], the concentration at half-maximal activity (AC50) was 35.5 µM [rising, single point].
For `COC(=O)C(NC(=O)CNS(=O)(=O)c1ccc(Br)cc1)c1ccccc1` (stereo unspecified), the half-maximal activity concentration (AC50) under setting [1] is 11.2 µM [falling, partial curve, poor fit].
On the same count and under the same terms, as for `O=C(N/C=C/c1ccccc1)c1ccccc1`, the figure is 7.31 µM [falling, partial curve].
On the same count and under the same terms, as for `CCCCn1c2c(c(=O)n(C)c1=O)C(CC(=O)OCC(=O)Nc1cccc(C(F)(F)F)c1)C(=O)N2` (stereo unspecified), the figure is 6.31 µM [falling, full curve, poor fit]; as for `CCOc1ccccc1NC(=O)C1CCCCN1S(=O)(=O)c1ccc(F)cc1` (stereo unspecified), 6.51 µM [rising, partial curve, poor fit]; as for `Cc1cccc(-n2c(SCC(=O)NCc3ccc4c(c3)OCO4)nc3ccccc3c2=O)c1`, 1.84 µM [rising, partial curve, poor fit].
Turning to `Cc1ccc(NC(=O)Cn2c(=O)oc3ccccc32)cc1C`, the concentration at half-maximal activity (AC50) under setting [1] is 4.47 µM [falling, full curve, poor fit].
`CCN(CC)S(=O)(=O)c1ccc2c(c1)nc(SC(C)C(N)=O)n2-c1ccc(OC)cc1` (stereo unspecified): the concentration at half-maximal activity (AC50) under setting [1] was 7.31 µM [rising, partial curve, poor fit].
Still for that read-out and setting: as for `CNCCCCOc1ccc(C(C)(C)C)cc1Cl`, the figure is 22.4 µM [falling, single point].
On to `O=C(Nc1nc(-c2ccc(F)cc2)cs1)c1cccc(N2C(=O)CCC2=O)c1`, for which the AC50 under setting [1] was 10 µM [falling, partial curve].
Regarding `CCc1ccccc1NC(=O)c1cc(-c2ccc(F)cc2)on1`, the concentration at half-maximal activity (AC50) under setting [1] was 1 µM [falling, full curve].
In the case of `Cc1cc(C)n(-c2ccc(C(=O)Nc3cccnc3)cc2)n1`, the AC50 under setting [1] is 14.1 µM [falling, partial curve, poor fit].
Take `O=C(N/N=C/c1ccc[nH]1)c1cc(-c2ccc(Cl)cc2)nc2ccccc12`: under setting [1], the AC50 is 12.6 µM [rising, partial curve, poor fit].
Consider `COc1ccccc1NC(=O)N1CCC(CN2CCc3ccccc3C2)CC1`, for which the half-maximal activity concentration (AC50) under setting [1] is 5.62 µM [rising, partial curve].
In the case of `CC(OC(=O)c1ccccc1N1C(=O)C2C3CCC(C3)C2C1=O)C(=O)c1ccccc1` (stereo unspecified), the AC50 under setting [1] was 10.3 µM [rising, partial curve].
Take `COc1ccc(-c2nc(C#N)c(N3CCC(C)CC3)o2)cc1`: the AC50 under setting [1] was 2.24 µM [rising, partial curve, poor fit].
In the case of `COC(=O)c1[nH]c2ccc(C)cc2c1NC(=O)CCN1CCN(C2CCCCC2)CC1`, the AC50 under setting [1] was 2.91 µM [rising, partial curve, poor fit].
In the case of `CC1(C)C=C(c2ccc(C=O)s2)CC(C)(C)N1C=O`, under setting [1], the AC50 was 18.4 µM [rising, partial curve, poor fit].
On to `COc1ccccc1/C=C/C(C)=O`, for which, under setting [1], the concentration at half-maximal activity (AC50) was 29.1 µM [falling, single point].
On to `CCN(C(=O)COC(=O)c1cc(-c2cccs2)nc2ccccc12)C1CCS(=O)(=O)C1` (stereo unspecified), for which, under setting [1], the concentration at half-maximal activity (AC50) is 35.5 µM [falling, single point].
Turning to `Cc1cccnc1NC(=S)NC(=O)c1cncc(Br)c1`, the AC50 under setting [1] was 0.794 µM [rising, full curve, poor fit].
For the compound `COc1ccc(/C=N\NC(=O)c2ccccc2Br)cc1COc1ccc(F)cc1`, the concentration at half-maximal activity (AC50) under setting [1] is 1.58 µM [falling, full curve, poor fit].
Consider `COc1cc(CCN2C(=O)c3cccc4cccc(c34)C2=O)c(S(=O)(=O)NCCCO)cc1OC`, for which the AC50 under setting [1] was 11.2 µM [rising, partial curve, poor fit].
For the compound `CC(C)c1ccc(C2CC(=O)c3cnc(N4CCc5ccccc5C4)nc3C2)cc1` (stereo unspecified), the AC50 under setting [1] is 10 µM [falling, partial curve, poor fit].
Turning to `O=C(/C=C/c1ccc(Cl)cc1Cl)N1CCc2ccccc21`, under setting [1], the concentration at half-maximal activity (AC50) was 29.1 µM [rising, single point].

As a reminder, the AC50 is the midpoint of the concentration-response curve, whichever way the signal moves.
